In patent publication US20250375528A1 (priority 2021, published 2025):

Assay: general procedure: Fmoc solid-phase peptide synthesis; Wang resin; HBTU/HOBT/DIEA
Conditions: whole synthesis, 214 nm

## H-RQIKIWFWWRRMKWKK[ξPhe(4-N(CH2CH2Cl)2)]-OH
  final HPLC purity: above 95%

[ ]: non-standard residue; d: D form. ξ: configuration not given here. ξPhe(4-N(CH2CH2Cl)2) = NC(Cc1ccc(N(CCCl)CCCl)cc1)C(=O)O
